In patent publication US10806765B2, “Immunologically active phyto-mixture and its use in the prevention and in a method for treatment of efflorescences” (priority 2015, dated 2020):

System: Staphylococcus aureus ATCC 25923
Test: MIC/MBC, microbouillon dilution
Format: cell-based
Conditions: ATCC25923
Experimental: Gram-Positive Bacteria • Methicillin resistant Staphylococcus aureus MRSA NCTC 10442 (MRSA NCTC 10442) • Staphylococcus aureus ATCC 25923 (S. aureus ATCC 25923) • Staphylococcus epidermidis ATCC 14990 (S. epid. ATCC 14990)
Gram-Negative Bacteria • Pseudomonas aeruginosa ATCC 27853 (P. aerug. ATCC 27853) and • Acinetobacter baumanii ATCC BAA747 (ATCC BAA747)
The bacteria were precultivated on Columbia medium with 5% sheep blood at 37° C. for 24 hours. On to two colonies were suspended in saline solution (0.9% NaCl) and adjusted to a turbidity of 0.5 McFarland standard which corresponds to 1×10^8 colony forming units per milliliter (CFU/ml). Subsequently, the suspension was diluted to 1×10^6 CFU/ml.
Determination of the Minimal Inhibitory Concentration (MIC) and the Minimum Bactericidal Concentration (MBC)
The MIC was determined by means of the microbouillon dilution process according to NCCLS (2006). For this purpose, the aqueous extracts were dissolved in water (w/v) and the ethanolic extracts in 5% DMSO (w/v) with 80 mg/ml each and Bur. simaruba as well as Aloe vera were suspended with 160 mg/ml. […]
The MIC was determined at 600 nm on the basis of the turbidity. […] The MBC was determined as lowest concentrations of the respective extract which totally kills the microorganisms. […]

CN[C@H](CC(C)C)C(=O)N[C@H]1C(=O)N[C@@H](CC(N)=O)C(=O)N[C@H]2C(=O)N[C@H]3C(=O)N[C@H](C(=O)N[C@H](C(=O)O)c4cc(O)cc(O)c4-c4cc3ccc4O)[C@H](O)c3ccc(c(Cl)c3)Oc3cc2cc(c3O[C@@H]2O[C@H](CO)[C@@H](O)[C@H](O)[C@H]2O[C@H]2C[C@](C)(N)[C@H](O)[C@H](C)O2)Oc2ccc(cc2Cl)[C@H]1O [Van, Vancomycin]
MIC: 0.5 µg/mL
